Measurements reported in PubChem BioAssay AID1224830 (NIAID, 2016)
Assay: 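Host factors that control LPS-induced TNF expression in human macrophages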 (primary screen). Cells: human THP-1 monocytic leukaemia cells, TNF dual-luciferase reporter clone, PMA-differentiated to macrophage-like cells. Knock-down reagent: siRNA pool against human genes, 50 nM. Timing: LPS for 4 h, given about 3 days after siRNA transfection. Challenge: bacterial LPS (TLR4 ligand), 10 ng/ml. Detection: 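TNF firefly reporter luminescence divided by renilla, normalised to the plate median, then turned into a robust z-score for each replicate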. Scale: TNF reporter robust z-score: higher = stronger TNF reporter response to LPS. Rule for the call: 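a well is active when its z-score exceeds 2.8 or falls below -1.5; control wells carry no call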.
In all, the deposit lists about 18,000 reagents; shown is an unselected part. About 2,900 of all reagents (16%) count as active. 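Calls are made per well; low scores hint the gene aids the LPS response, high scores that it dampens it.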 Unmarked entries are inactive. Repeated entries: four replicate wells of each siRNA pool.

| TNF reporter robust z-score | Gene |
| --- | --- |
| 0.25 | OR5L1 |
| -0.3 | OR5L1 |
| -0.05 | OR5L1 |
| 0.18 | OR5L1 |
| -0.36 | TUBAL3 |
| -0.11 | TUBAL3 |
| -0.54 | TUBAL3 |
| 0.13 | TUBAL3 |
| 0.48 | RAB1A |
| 2.01 | RAB1A |
| 1.27 | RAB1A |
| 1.51 | RAB1A |
| -0.17 | DCAF11 |
| -0.01 | DCAF11 |
| 0.03 | DCAF11 |
| 1.12 | DCAF11 |
| -0.32 | ZNF69 |
| 0.21 | ZNF69 |
| -0.31 | ZNF69 |
| 0.25 | ZNF69 |
| -0.41 | SUGT1 |
| -0.28 | SUGT1 |
| 0.18 | SUGT1 |
| -0.15 | SUGT1 |
| 0.44 | HSPBP1 |
| 0.66 | HSPBP1 |
| 0.58 | HSPBP1 |
| 2.03 | HSPBP1 |
| -1.03 | PRELP |
| 0.55 | PRELP |
| -0.05 | PRELP |
| -0.21 | PRELP |
| -0.52 | FZD6 |
| 0.51 | FZD6 |
| 0.67 | FZD6 |
| 0.48 | FZD6 |
| 0.38 | PNO1 |
| 4.03 (active) | PNO1 |
| 1.38 | PNO1 |
| 3.08 (active) | PNO1 |
| -0.74 | CST11 |
| 0.91 | CST11 |
| -0.33 | CST11 |
| -0.1 | CST11 |
| -1.04 | NPIPB7 |
| -0.27 | NPIPB7 |
| 0.13 | NPIPB7 |
| -0.53 | NPIPB7 |

Targets listed so far whose target name begins with Z or z (4):
| TNF reporter robust z-score | Gene |
| --- | --- |
| -0.32 | ZNF69 |
| 0.21 | ZNF69 |
| -0.31 | ZNF69 |
| 0.25 | ZNF69 |
